# In the supplement of paper PMC10849652:
# The chains behind the UniProt entries cited, without tags or fusion partners. Where a name states a change or a piece, a line headed by the entry shows the natural chain unless it says otherwise.
# UniProt Q8N2S1: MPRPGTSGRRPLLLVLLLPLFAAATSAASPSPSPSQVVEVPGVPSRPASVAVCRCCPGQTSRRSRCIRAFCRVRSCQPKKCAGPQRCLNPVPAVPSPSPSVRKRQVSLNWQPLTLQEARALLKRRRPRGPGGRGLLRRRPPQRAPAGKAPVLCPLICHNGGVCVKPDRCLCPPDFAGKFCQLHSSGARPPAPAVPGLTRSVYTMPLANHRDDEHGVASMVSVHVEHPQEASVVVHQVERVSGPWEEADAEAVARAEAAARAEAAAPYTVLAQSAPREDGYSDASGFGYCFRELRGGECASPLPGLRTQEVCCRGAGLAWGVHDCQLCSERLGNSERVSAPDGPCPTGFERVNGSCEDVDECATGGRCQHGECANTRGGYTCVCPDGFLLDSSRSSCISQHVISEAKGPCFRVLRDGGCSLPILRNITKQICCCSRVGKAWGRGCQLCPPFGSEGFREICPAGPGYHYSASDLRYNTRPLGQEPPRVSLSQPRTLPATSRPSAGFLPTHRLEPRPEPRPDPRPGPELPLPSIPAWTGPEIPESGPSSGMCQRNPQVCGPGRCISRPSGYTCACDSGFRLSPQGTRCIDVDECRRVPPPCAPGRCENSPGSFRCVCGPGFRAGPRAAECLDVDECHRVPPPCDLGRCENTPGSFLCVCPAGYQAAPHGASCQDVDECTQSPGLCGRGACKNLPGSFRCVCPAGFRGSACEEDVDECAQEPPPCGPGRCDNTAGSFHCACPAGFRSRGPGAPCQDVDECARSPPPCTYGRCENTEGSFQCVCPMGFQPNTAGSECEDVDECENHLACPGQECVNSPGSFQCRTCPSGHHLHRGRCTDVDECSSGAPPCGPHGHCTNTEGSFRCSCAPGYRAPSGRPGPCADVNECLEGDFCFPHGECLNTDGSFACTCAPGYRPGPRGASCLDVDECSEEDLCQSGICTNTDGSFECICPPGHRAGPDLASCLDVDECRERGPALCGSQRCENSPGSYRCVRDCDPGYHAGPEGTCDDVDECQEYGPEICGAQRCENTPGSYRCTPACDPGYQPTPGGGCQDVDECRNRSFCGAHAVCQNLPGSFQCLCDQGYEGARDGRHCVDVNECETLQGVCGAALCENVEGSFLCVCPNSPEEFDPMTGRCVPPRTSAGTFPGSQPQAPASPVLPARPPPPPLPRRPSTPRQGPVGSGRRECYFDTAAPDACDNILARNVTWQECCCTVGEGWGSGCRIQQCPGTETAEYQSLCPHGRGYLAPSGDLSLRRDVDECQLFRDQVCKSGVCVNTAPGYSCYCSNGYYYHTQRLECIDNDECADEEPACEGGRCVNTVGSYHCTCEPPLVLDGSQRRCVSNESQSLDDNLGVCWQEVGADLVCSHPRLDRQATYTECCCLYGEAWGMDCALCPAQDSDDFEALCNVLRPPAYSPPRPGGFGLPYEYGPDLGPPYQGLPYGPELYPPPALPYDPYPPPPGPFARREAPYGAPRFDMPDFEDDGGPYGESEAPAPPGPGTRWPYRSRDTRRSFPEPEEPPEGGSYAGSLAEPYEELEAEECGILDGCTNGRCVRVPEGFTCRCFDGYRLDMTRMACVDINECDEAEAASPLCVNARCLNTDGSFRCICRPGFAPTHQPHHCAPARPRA
# UniProt P41279, whole entry, looked up: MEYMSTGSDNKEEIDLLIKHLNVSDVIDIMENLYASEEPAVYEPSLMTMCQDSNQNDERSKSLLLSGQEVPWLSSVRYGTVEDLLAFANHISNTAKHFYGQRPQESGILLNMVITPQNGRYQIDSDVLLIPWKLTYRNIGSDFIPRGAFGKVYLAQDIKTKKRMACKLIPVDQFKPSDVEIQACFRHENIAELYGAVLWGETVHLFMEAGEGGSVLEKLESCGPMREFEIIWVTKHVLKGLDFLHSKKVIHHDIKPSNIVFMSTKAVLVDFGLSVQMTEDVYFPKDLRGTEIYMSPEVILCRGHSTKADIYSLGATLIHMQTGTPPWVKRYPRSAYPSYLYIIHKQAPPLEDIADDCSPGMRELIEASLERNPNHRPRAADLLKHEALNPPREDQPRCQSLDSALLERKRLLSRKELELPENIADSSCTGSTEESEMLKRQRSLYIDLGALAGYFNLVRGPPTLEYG
# UniProt O15525: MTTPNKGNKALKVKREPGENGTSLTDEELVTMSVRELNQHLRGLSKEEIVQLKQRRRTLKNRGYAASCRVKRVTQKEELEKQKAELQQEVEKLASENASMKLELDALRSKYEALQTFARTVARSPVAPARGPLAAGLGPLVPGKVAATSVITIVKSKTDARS
# UniProt Q9Y2E5: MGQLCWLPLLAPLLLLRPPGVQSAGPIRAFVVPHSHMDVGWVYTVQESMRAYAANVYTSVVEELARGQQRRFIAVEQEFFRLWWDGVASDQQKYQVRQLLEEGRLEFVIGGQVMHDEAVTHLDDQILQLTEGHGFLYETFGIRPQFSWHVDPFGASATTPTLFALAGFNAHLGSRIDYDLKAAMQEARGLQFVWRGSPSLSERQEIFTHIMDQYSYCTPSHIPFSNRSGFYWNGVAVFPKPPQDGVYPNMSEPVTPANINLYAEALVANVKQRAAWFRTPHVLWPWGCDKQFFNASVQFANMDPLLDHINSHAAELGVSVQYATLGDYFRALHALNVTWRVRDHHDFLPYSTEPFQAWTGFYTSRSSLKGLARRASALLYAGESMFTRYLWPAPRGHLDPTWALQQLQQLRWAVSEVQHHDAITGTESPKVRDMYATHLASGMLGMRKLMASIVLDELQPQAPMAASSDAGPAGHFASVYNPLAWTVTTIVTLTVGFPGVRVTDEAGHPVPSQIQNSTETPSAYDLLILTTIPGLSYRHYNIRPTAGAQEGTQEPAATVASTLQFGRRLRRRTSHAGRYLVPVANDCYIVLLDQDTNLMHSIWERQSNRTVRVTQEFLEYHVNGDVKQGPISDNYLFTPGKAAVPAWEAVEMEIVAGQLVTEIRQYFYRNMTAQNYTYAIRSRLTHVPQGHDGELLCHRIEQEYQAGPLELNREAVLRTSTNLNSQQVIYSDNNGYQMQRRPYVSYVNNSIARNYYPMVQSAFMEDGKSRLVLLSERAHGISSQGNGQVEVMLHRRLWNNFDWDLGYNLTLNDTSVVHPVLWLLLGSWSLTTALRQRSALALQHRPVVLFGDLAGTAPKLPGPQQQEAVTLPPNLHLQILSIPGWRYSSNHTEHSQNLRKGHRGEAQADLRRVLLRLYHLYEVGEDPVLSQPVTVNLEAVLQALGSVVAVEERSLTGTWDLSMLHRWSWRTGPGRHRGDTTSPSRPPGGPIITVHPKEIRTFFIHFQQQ
# UniProt Q14766: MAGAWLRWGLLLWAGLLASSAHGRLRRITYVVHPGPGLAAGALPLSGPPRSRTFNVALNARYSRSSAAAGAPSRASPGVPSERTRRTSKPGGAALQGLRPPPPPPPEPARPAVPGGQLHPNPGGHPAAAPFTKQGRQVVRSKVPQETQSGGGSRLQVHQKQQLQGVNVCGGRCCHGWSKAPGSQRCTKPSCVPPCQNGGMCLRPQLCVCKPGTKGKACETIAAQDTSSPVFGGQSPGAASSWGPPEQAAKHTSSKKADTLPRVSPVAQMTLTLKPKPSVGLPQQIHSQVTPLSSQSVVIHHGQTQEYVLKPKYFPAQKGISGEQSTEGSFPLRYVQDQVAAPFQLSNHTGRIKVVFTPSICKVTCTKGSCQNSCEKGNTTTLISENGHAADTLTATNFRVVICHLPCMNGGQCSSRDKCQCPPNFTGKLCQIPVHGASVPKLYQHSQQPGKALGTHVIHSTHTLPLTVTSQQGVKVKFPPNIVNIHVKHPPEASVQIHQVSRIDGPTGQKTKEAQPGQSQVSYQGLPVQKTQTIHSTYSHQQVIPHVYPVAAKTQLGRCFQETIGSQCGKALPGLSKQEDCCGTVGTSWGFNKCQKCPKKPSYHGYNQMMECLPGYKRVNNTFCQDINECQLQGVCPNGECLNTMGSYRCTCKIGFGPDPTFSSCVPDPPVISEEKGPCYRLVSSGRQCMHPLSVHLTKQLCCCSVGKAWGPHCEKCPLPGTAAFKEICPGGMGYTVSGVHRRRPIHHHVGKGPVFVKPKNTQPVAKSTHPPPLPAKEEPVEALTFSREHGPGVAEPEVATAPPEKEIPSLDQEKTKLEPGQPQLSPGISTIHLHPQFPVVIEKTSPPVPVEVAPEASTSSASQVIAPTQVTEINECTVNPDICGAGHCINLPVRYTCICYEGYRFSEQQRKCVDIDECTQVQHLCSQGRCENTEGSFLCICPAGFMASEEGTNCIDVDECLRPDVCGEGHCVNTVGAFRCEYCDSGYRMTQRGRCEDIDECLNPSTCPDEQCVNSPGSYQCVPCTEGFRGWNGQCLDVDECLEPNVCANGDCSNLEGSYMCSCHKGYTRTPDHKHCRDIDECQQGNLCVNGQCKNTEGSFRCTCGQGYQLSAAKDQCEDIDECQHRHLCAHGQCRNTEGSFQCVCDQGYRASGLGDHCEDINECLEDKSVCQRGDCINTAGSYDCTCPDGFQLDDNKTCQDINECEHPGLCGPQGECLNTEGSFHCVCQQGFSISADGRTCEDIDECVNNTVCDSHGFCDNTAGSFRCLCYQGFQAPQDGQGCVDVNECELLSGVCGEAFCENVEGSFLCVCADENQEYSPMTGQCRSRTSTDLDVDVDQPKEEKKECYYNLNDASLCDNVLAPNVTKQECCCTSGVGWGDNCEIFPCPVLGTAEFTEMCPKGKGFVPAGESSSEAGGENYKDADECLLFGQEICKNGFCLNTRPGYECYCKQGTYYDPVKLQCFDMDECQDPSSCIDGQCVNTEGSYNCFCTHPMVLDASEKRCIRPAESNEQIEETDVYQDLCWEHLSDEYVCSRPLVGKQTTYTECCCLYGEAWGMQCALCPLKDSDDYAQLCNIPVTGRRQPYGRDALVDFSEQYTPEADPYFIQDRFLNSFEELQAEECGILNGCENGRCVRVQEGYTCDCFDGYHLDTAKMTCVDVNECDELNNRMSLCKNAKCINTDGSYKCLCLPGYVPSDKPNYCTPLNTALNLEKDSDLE
# UniProt Q9Y6R4: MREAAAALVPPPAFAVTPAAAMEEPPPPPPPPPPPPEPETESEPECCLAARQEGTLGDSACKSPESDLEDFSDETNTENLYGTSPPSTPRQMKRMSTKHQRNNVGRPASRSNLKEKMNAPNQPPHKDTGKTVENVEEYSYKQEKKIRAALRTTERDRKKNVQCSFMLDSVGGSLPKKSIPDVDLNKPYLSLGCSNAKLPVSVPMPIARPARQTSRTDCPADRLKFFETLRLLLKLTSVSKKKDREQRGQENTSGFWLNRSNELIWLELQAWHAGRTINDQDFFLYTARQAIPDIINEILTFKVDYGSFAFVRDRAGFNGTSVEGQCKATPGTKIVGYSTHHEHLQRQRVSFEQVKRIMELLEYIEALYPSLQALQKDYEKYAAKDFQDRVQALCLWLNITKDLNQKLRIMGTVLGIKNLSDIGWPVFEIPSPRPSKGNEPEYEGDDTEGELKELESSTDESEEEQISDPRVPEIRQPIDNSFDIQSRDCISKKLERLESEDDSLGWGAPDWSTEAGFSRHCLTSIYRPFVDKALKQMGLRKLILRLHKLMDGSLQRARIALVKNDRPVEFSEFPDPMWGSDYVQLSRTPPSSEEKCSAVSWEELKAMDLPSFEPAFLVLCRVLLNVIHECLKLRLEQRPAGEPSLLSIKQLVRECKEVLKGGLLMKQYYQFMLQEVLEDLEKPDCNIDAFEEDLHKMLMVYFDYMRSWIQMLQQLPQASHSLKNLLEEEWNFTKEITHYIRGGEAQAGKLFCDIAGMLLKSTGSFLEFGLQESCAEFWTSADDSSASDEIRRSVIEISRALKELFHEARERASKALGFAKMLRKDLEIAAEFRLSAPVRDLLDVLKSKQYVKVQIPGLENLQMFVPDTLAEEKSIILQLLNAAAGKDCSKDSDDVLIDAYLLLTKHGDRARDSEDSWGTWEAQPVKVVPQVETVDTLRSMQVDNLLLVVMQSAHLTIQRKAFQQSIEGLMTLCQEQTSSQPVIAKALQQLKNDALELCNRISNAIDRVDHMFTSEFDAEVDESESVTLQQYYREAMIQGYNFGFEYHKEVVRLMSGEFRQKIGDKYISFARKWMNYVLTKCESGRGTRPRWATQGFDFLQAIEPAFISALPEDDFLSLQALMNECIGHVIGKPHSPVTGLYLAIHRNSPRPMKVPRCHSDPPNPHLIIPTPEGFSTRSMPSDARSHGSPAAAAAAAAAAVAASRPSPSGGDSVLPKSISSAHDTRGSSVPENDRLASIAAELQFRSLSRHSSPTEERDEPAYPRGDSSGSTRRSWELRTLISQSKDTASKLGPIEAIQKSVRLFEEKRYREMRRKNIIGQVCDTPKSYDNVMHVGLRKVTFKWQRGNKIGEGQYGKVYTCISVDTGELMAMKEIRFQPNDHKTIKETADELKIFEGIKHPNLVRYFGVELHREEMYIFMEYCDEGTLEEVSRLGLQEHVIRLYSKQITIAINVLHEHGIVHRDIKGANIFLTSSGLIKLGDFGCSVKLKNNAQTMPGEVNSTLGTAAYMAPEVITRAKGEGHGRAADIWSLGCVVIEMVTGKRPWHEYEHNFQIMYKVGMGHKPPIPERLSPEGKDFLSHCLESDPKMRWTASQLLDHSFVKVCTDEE
# The other results are listed elsewhere or left out.
# Tests used:
# Assay in all cases: log2 fold change, soluble protein after heating vs DMSO (PISA); higher = thermal stabilisation; K562 lysate, 10 uM; active = over 0.2 and 3.5 SD of the protein, either way, in both replicates (recomputed)
# [1] = compound: CCCS(=O)(=O)Nc1ccc(F)c(C(=O)c2c[nH]c3ncc(Cl)cc23)c1F
# Summary of the method: (§1)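 Following dounce homogenisation of K562 pellets in PBS pH 7.4 with 1 mM MgCl2, crude extract at 1 mg/mL protein was incubated for 30 min with 10 μM compound. Aliquots were then heated for 3 min over 48°C-58°C and pooled, NP-40 was added to 0.5% at 4°C, and soluble protein was recovered as the supernatant at 21,000xg for 90 min. Channel-sum-equalised TMTpro 16plex LC-MS/MS quantified this protein. Each value, from duplicates, is a log-two fold change in thermal stability relative to solvent controls.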
# barasertib = compound: CCN(CCCOc1ccc2c(Nc3cc(CC(=O)Nc4cccc(F)c4)[nH]n3)ncnc2c1)CCOP(=O)(O)O [barasertib]
# Summary of the method: as §1
# [2] = compound: CC[C@@H]1C(=O)N(C)c2cnc(Nc3ccc(C(=O)NC4CCN(C)CC4)cc3OC)nc2N1C1CCCC1
# Summary of the method: as §1
# volasertib = compound: CC[C@@H]1C(=O)N(C)c2cnc(Nc3ccc(C(=O)N[C@H]4CC[C@H](N5CCN(CC6CC6)CC5)CC4)cc3OC)nc2N1C(C)C [volasertib]
# Summary of the method: as §1
# [3] = compound: CCn1c(C(=O)N(C2CC2)C2CC2)cc2c3c(ncn3C)c(Nc3cc(C)n(C)n3)nc21
# Summary of the method: as §1
# [4] = compound: CCn1cc(-c2ccnc3[nH]c(-c4cccc(CN(C)C)c4)cc23)c(-c2ccc(NC(=O)N(C)C)cc2)n1
# Summary of the method: as §1
# [5] = compound: CN1CCC(CNc2ccc3ncc(-c4cccc(OC(F)(F)F)c4)n3n2)CC1
# Summary of the method: as §1
# saracatinib = compound: CN1CCN(CCOc2cc(OC3CCOCC3)c3c(Nc4c(Cl)ccc5c4OCO5)ncnc3c2)CC1 [saracatinib]
# Summary of the method: as §1
# sotrastaurin = compound: CN1CCN(c2nc(C3=C(c4c[nH]c5ccccc45)C(=O)NC3=O)c3ccccc3n2)CC1 [sotrastaurin]
# Summary of the method: as §1
# alvocidib = compound: CN1CC[C@H](c2c(O)cc(O)c3c(=O)cc(-c4ccccc4Cl)oc23)[C@H](O)C1 [alvocidib]
# Summary of the method: as §1
# Tubastatin A = compound: CN1CCc2c(c3ccccc3n2Cc2ccc(C(=O)NO)cc2)C1 [Tubastatin A]
# Summary of the method: as §1
# [6] = compound: CNC(=O)C1=CC=CC=C1NC2=NC(=NC=C2Cl)NC3=C(C=C(C=C3)N4CCOCC4)OC
# Summary of the method: as §1
# [7] = compound: CNc1nc(-c2ccc3c(N)n[nH]c3c2)cc(N2C[C@@H](C(=O)NC3CCCCC3)CC[C@H]2C)n1
# Summary of the method: as §1
# encorafenib = compound: COC(=O)N[C@@H](C)CNc1nccc(-c2cn(C(C)C)nc2-c2cc(Cl)cc(NS(C)(=O)=O)c2F)n1 [encorafenib]
# Summary of the method: as §1
# [8] = compound: COC(=O)[C@H](CCSC)NC(=O)C1=C(C=C(C=C1)NC[C@H](CS)N)C2=CC=CC=C2
# Summary of the method: as §1
# alisertib = compound: COc1cc(Nc2ncc3c(n2)-c2ccc(Cl)cc2C(c2c(F)cccc2OC)=NC3)ccc1C(=O)O [alisertib]
# Summary of the method: as §1
# [9] = compound: COc1cc2nc(-c3cc(F)ccc3O)nc(N[C@@H]3CNC[C@H]3C(C)(C)O)c2cc1OC
# Summary of the method: as §1
# gefitinib = compound: COc1cc2ncnc(Nc3ccc(F)c(Cl)c3)c2cc1OCCCN1CCOCC1 [gefitinib]
# Summary of the method: as §1
# vemurafenib = compound: CCCS(=O)(=O)Nc1ccc(F)c(C(=O)c2c[nH]c3ncc(-c4ccc(Cl)cc4)cc23)c1F [vemurafenib]
# Summary of the method: as §1
# defactinib = compound: CNC(=O)c1ccc(Nc2ncc(C(F)(F)F)c(NCc3nccnc3N(C)S(C)(=O)=O)n2)cc1 [defactinib]
# Summary of the method: as §1
target,measurement,setting,value
LTBP4 (UniProt Q8N2S1),log2 fold change,[1],inactive: -0.1
same,log2 fold change,barasertib,inactive: -0.232
same,log2 fold change,[2],inactive: -0.009
same,log2 fold change,volasertib,inactive: -0.021
same,log2 fold change,[3],inactive: 0.022
same,log2 fold change,[4],inactive: -0.074
same,log2 fold change,[5],inactive: 0.186
same,log2 fold change,saracatinib,inactive: 0.032
same,log2 fold change,sotrastaurin,inactive: 0.034
same,log2 fold change,alvocidib,inactive: -0.067
same,log2 fold change,Tubastatin A,inactive: -0.017
same,log2 fold change,[6],inactive: 0.005
same,log2 fold change,[7],inactive: -0.046
same,log2 fold change,encorafenib,inactive: 0.044
same,log2 fold change,[8],inactive: -0.006
same,log2 fold change,alisertib,inactive: -0.019
same,log2 fold change,[9],inactive: 0.052
same,log2 fold change,gefitinib,inactive: -0.08
LYL1 (UniProt P12980),log2 fold change,barasertib,inactive: -0.032
same,log2 fold change,[4],inactive: 0.078
same,log2 fold change,[5],inactive: 0.028
same,log2 fold change,sotrastaurin,inactive: 0.105
same,log2 fold change,alvocidib,inactive: 0.05
same,log2 fold change,[6],inactive: 0.034
MAGEB10 (UniProt Q96LZ2),log2 fold change,[4],inactive: 0.032
same,log2 fold change,[5],inactive: -0.253
same,log2 fold change,alvocidib,inactive: -0.38
MAPK7 (UniProt Q13164),log2 fold change,[1],inactive: 0.024
same,log2 fold change,[2],inactive: 0.072
same,log2 fold change,volasertib,inactive: -0.056
same,log2 fold change,[4],inactive: -0.084
same,log2 fold change,[5],inactive: -0.101
same,log2 fold change,sotrastaurin,inactive: -0.031
same,log2 fold change,alvocidib,inactive: 0.069
same,log2 fold change,[6],inactive: 0.002
same,log2 fold change,encorafenib,inactive: -0.03
same,log2 fold change,[8],inactive: -0.114
same,log2 fold change,[9],inactive: 0.157
MAP3K8 (UniProt P41279),log2 fold change,barasertib,inactive: 0.002
same,log2 fold change,[4],inactive: -0.118
same,log2 fold change,[5],inactive: 0.035
same,log2 fold change,saracatinib,inactive: 0.085
same,log2 fold change,alvocidib,inactive: -0.142
same,log2 fold change,[7],inactive: -0.206
MAPK3 (UniProt H0YEX6),log2 fold change,alisertib,inactive: -0.128
same,log2 fold change,gefitinib,inactive: -0.016
MAFG (UniProt O15525),log2 fold change,[1],inactive: 0.097
same,log2 fold change,barasertib,inactive: 0.092
same,log2 fold change,[2],inactive: 0.142
same,log2 fold change,volasertib,inactive: -0.036
same,log2 fold change,[3],inactive: -0.078
same,log2 fold change,[4],inactive: -0.128
same,log2 fold change,[5],inactive: 0.01
same,log2 fold change,saracatinib,inactive: 0.15
same,log2 fold change,sotrastaurin,inactive: -0.006
same,log2 fold change,alvocidib,inactive: 0.015
same,log2 fold change,Tubastatin A,inactive: -0.075
same,log2 fold change,[6],inactive: 0.094
same,log2 fold change,[7],inactive: -0.009
same,log2 fold change,encorafenib,inactive: 0.029
same,log2 fold change,[8],inactive: 0.245
same,log2 fold change,alisertib,inactive: 0.177
same,log2 fold change,[9],inactive: 0.066
same,log2 fold change,gefitinib,inactive: -0.06
MAOA (UniProt P21397),log2 fold change,saracatinib,inactive: -1.22
same,log2 fold change,[7],inactive: 0.091
MAN2B2 (UniProt Q9Y2E5),log2 fold change,[1],inactive: -0.028
same,log2 fold change,barasertib,inactive: -0.047
same,log2 fold change,[2],inactive: -0.013
same,log2 fold change,volasertib,inactive: -0.006
same,log2 fold change,[3],inactive: -0.022
same,log2 fold change,[4],active: 0.648
same,log2 fold change,[5],active: -0.649
same,log2 fold change,saracatinib,inactive: -0.053
same,log2 fold change,sotrastaurin,inactive: -0.024
same,log2 fold change,alvocidib,inactive: 0.199
same,log2 fold change,Tubastatin A,inactive: 0.029
same,log2 fold change,[6],inactive: -0.006
same,log2 fold change,[7],inactive: 0.059
same,log2 fold change,encorafenib,inactive: -0.004
same,log2 fold change,[8],inactive: 0.073
same,log2 fold change,alisertib,inactive: 0.032
same,log2 fold change,[9],inactive: 0.049
same,log2 fold change,gefitinib,inactive: -0.017
MAGEA3 (UniProt P43357),log2 fold change,vemurafenib,inactive: 0.065
same,log2 fold change,[2],inactive: -0.022
same,log2 fold change,sotrastaurin,inactive: 0.059
same,log2 fold change,defactinib,inactive: -0.052
same,log2 fold change,encorafenib,inactive: -0.069
same,log2 fold change,[8],inactive: 0.137
LTBR (UniProt P36941),log2 fold change,[1],inactive: 0.047
same,log2 fold change,barasertib,inactive: 0.086
same,log2 fold change,volasertib,inactive: -0.077
same,log2 fold change,[4],inactive: -0.103
same,log2 fold change,[5],inactive: 0.086
same,log2 fold change,sotrastaurin,inactive: 0.098
same,log2 fold change,alvocidib,inactive: -0.139
same,log2 fold change,[6],inactive: -0.05
same,log2 fold change,[9],inactive: 0.132
"MACF1, A0A5F9ZGX0",log2 fold change,[4],inactive: -0.032
same,log2 fold change,[5],inactive: 0.024
same,log2 fold change,alvocidib,inactive: 0
LYN isoform 2 (UniProt P07948),log2 fold change,[2],inactive: -0.077
same,log2 fold change,[3],inactive: -0.075
same,log2 fold change,[4],inactive: -0.031
same,log2 fold change,[5],inactive: 0.024
same,log2 fold change,saracatinib,inactive: 0.353
same,log2 fold change,sotrastaurin,inactive: 0.074
same,log2 fold change,alvocidib,inactive: 0.138
same,log2 fold change,Tubastatin A,inactive: -0.153
same,log2 fold change,[6],inactive: 0.175
same,log2 fold change,[7],inactive: 0.014
same,log2 fold change,encorafenib,inactive: -0.063
same,log2 fold change,[8],inactive: 0.301
same,log2 fold change,alisertib,inactive: 0.229
same,log2 fold change,gefitinib,inactive: 0.054
MAPK11 (UniProt Q15759),log2 fold change,[1],inactive: 0.262
same,log2 fold change,barasertib,inactive: 0.129
same,log2 fold change,volasertib,inactive: -0.054
same,log2 fold change,[3],inactive: -0.154
same,log2 fold change,sotrastaurin,inactive: -0.37
same,log2 fold change,Tubastatin A,inactive: -0.001
same,log2 fold change,[6],inactive: 0.709
same,log2 fold change,alisertib,inactive: -0.082
same,log2 fold change,[9],inactive: -0.296
same,log2 fold change,gefitinib,inactive: 0.02
LY6D (UniProt Q14210),log2 fold change,saracatinib,inactive: 0.354
same,log2 fold change,[7],inactive: -0.989
MAST3 (UniProt O60307),log2 fold change,[1],inactive: 0.057
same,log2 fold change,[2],inactive: 0.054
same,log2 fold change,volasertib,inactive: -0.011
same,log2 fold change,[3],inactive: 0.052
same,log2 fold change,saracatinib,inactive: 0.002
same,log2 fold change,Tubastatin A,inactive: -0.08
same,log2 fold change,[6],inactive: -0.075
same,log2 fold change,[7],inactive: -0.042
same,log2 fold change,encorafenib,inactive: 0.049
same,log2 fold change,[8],inactive: -0.051
same,log2 fold change,[9],inactive: -0.032
LYRM1 (UniProt O43325),log2 fold change,vemurafenib,inactive: -0.166
same,log2 fold change,[4],inactive: -0.117
same,log2 fold change,[5],inactive: -0.121
same,log2 fold change,saracatinib,inactive: -0.052
same,log2 fold change,sotrastaurin,inactive: -0.074
same,log2 fold change,alvocidib,inactive: -0.343
same,log2 fold change,[6],inactive: 0.083
same,log2 fold change,defactinib,inactive: 0.157
same,log2 fold change,[7],inactive: -0.014
MAPK15 (UniProt Q8TD08),log2 fold change,[3],inactive: -0.185
same,log2 fold change,saracatinib,inactive: 0.039
same,log2 fold change,sotrastaurin,inactive: 0.114
same,log2 fold change,Tubastatin A,inactive: 0.106
same,log2 fold change,[6],inactive: 0.019
same,log2 fold change,[7],inactive: 0.187
same,log2 fold change,alisertib,inactive: -0.075
same,log2 fold change,gefitinib,inactive: 0
LTBP1 isoform 4 (UniProt Q14766),log2 fold change,barasertib,inactive: 0.071
same,log2 fold change,[2],inactive: 0.033
same,log2 fold change,[4],inactive: 0.054
same,log2 fold change,[5],inactive: 0.148
same,log2 fold change,saracatinib,inactive: -0.12
same,log2 fold change,alvocidib,inactive: -0.015
same,log2 fold change,[6],inactive: -0.243
same,log2 fold change,[7],inactive: -0.199
same,log2 fold change,encorafenib,inactive: 0.013
same,log2 fold change,[8],inactive: -0.179
same,log2 fold change,alisertib,inactive: -0.036
same,log2 fold change,gefitinib,inactive: 0.065
MAP3K4 isoform 2 (UniProt Q9Y6R4),log2 fold change,sotrastaurin,inactive: -0.004
MACF1 (UniProt E9PLY5),log2 fold change,[1],inactive: -0.053
same,log2 fold change,barasertib,inactive: -0.047
same,log2 fold change,volasertib,inactive: -0.288
same,log2 fold change,[4],inactive: -0.231
same,log2 fold change,[5],inactive: 0.213
same,log2 fold change,sotrastaurin,inactive: 0.018
same,log2 fold change,alvocidib,inactive: -0.217
same,log2 fold change,alisertib,inactive: -0.024
same,log2 fold change,[9],inactive: 0.101
same,log2 fold change,gefitinib,inactive: -0.016
MAP3K6 (UniProt O95382),log2 fold change,vemurafenib,inactive: -0.006
same,log2 fold change,[2],inactive: 0.164
same,log2 fold change,defactinib,inactive: -0.096
same,log2 fold change,encorafenib,inactive: 0.167
same,log2 fold change,[8],inactive: -0.031
same,log2 fold change,alisertib,inactive: 0.026
same,log2 fold change,gefitinib,inactive: -0.022

# Copied from the listing for reference:
target,measurement,setting,value
MAST3 (UniProt O60307),log2 fold change,[9],inactive: -0.032
LYRM1 (UniProt O43325),log2 fold change,vemurafenib,inactive: -0.166
same,log2 fold change,[4],inactive: -0.117
same,log2 fold change,[5],inactive: -0.121
same,log2 fold change,saracatinib,inactive: -0.052
same,log2 fold change,sotrastaurin,inactive: -0.074
same,log2 fold change,alvocidib,inactive: -0.343

# Looked up one by one from the list above, three records:
target,measurement,setting,value
LTBP1 isoform 4 (UniProt Q14766),log2 fold change,[4],inactive: 0.054
LYN isoform 2 (UniProt P07948),log2 fold change,Tubastatin A,inactive: -0.153
MAFG (UniProt O15525),log2 fold change,sotrastaurin,inactive: -0.006
